From paper PMC7350744
Results are given in words; binding and its absence hold for the method and conditions named. Binding seen in cells or lysates may run through a third protein. Some entries that bind do so weakly or less than the wild type.

The chains behind the UniProt entries cited, without tags or fusion partners.
UniProt O14497: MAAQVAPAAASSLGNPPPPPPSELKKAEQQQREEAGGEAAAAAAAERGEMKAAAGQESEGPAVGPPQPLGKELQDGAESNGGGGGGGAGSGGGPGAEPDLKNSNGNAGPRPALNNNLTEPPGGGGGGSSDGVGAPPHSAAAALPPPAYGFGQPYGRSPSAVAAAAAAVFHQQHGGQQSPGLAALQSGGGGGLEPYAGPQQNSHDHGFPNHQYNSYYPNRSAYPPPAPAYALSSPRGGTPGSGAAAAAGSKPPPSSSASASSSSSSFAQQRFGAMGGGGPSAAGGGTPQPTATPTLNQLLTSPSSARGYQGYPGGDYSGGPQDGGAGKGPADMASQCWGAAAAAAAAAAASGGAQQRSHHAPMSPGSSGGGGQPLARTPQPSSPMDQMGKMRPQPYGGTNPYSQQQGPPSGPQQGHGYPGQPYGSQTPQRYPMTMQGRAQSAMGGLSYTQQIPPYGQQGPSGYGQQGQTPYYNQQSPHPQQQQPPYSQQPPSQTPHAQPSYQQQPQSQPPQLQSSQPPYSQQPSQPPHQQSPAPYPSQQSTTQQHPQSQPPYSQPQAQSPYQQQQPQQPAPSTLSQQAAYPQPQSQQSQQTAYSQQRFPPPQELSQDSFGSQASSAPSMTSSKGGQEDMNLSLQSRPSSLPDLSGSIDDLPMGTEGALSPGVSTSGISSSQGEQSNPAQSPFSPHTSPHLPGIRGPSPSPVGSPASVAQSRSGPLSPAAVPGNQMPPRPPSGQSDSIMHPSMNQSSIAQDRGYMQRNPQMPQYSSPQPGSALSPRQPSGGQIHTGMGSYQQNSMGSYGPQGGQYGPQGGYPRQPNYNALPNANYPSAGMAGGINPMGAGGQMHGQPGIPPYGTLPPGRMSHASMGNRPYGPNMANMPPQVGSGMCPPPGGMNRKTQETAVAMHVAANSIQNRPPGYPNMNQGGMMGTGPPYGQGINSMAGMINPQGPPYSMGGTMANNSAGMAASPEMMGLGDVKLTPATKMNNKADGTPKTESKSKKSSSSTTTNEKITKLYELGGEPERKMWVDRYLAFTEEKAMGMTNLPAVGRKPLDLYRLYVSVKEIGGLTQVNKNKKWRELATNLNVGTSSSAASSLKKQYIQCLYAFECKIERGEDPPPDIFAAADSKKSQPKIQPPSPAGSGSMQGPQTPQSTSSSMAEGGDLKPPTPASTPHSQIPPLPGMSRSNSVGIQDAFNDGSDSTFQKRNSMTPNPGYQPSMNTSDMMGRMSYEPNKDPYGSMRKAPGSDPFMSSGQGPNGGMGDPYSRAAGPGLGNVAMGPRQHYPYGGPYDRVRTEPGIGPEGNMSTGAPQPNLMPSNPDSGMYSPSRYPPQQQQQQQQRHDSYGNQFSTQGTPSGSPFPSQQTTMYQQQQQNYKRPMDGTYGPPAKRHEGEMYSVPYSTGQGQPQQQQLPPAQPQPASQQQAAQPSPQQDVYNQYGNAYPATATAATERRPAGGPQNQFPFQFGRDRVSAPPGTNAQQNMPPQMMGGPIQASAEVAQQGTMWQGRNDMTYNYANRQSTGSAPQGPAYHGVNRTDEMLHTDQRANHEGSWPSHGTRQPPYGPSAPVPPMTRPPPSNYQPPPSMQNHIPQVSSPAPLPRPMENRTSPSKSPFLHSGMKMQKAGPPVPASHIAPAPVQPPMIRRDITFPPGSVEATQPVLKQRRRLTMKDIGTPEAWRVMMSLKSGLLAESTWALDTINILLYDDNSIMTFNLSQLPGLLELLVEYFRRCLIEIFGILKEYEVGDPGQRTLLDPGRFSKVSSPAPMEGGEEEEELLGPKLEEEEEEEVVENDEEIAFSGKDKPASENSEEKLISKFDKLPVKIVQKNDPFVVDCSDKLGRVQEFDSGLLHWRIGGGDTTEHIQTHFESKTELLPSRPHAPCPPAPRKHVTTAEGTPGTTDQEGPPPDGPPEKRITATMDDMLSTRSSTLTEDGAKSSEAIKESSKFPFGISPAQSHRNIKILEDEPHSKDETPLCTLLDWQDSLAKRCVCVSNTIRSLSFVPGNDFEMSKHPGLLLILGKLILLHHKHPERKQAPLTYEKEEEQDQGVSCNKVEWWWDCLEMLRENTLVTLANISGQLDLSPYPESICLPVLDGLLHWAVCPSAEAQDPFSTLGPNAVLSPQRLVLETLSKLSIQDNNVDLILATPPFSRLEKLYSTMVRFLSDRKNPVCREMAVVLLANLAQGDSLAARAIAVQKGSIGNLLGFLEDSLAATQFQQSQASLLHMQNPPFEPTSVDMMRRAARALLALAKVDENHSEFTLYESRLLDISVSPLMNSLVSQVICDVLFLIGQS
UniProt Q06413: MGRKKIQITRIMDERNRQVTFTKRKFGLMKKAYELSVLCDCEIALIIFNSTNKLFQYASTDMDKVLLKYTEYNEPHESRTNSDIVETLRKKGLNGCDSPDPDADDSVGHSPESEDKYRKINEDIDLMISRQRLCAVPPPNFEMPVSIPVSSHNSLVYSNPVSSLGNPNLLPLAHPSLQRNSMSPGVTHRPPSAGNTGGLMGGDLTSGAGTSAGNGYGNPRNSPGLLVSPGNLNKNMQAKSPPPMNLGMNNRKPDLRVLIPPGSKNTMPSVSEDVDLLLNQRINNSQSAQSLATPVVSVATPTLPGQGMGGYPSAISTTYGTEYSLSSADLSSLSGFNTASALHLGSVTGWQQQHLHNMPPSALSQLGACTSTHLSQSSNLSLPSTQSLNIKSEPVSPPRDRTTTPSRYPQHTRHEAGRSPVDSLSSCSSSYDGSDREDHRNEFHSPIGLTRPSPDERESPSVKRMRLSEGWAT

Target: ARID1A (human (endogenous in H9 hESCs)) (UniProt O14497)
Test: co-IP; endogenous proteins from H9 hESC lysates (undifferentiated T0, day 2 or day 6 of cardiac differentiation); Pierce Classic Magnetic IP/Co-IP Kit; detected by Western blotting; IP with anti-ARID1A antibody and, in the reverse direction, of T or MEF2C

binding: binds
Substance: MEF2C (from UniProt Q06413 1-473)
